{"source": "paper doi:10.1101/2023.08.11.552765", "binders": {"B1": {"name": "PksD, acyl hydrolase (AH) domain of the bacillaene trans-AT PKS, O34877 1-324 (enzyme)", "chain": "MNEPLVFMFSGQGSQYYHMGKELFKENTVFRQSMLEMDAIAARRIGTSIVEEIYHPGKRVSDPFDSILFSHPAIFMIEYSLYKVLEDRGIYPDYVLGSSLGEFAAAAVSGVSDAEDMLDCILEQAIIIQNSCDKGKMLAILDKPQLLNDHPQLFGNSELISINYDSHFVISGEEDHIRKIMEDLKEKQILCQLLPVSYAFHSSLIDPAESAYAEFLRSKSFQKPSIPIVSSLTGSCLHVMDENFFWNAVRKPMMFREAIRYLESQHTCKFIDLGPSGTLAAFVKQLIPGDSADRCCSIITPFHQELKNLNTVEYFRTPERKFTR"}, "B2": {"name": "Selenomethionine (SeMet)-derived PksD, O34877 1-324 (enzyme)", "chain": "B1 chain", "modifications": "here or on the partner: selenomethionine (SeMet)-derived; selenomethionine (SeMet)-derived"}}, "key": {"[1]": {"target": "T1, PksD, acyl hydrolase (AH) domain of the bacillaene trans-AT PKS (Bacillus subtilis str. 168), O34877", "T1 chain": "B1 chain", "assay": "SEC", "conditions": "remark: other sources report otherwise"}, "[2]": {"target": "T2, Selenomethionine (SeMet)-derived PksD (Bacillus subtilis str. 168), O34877", "T2 chain": "B1 chain", "assay": "crystal structure", "conditions": "remark: other sources report otherwise"}}, "note": "Results are given in words; binding and its absence hold for the method and conditions named. Some binding calls cover weakened binding; strength is not graded here.", "data": [{"binder": "B1", "values": [{"measurement": "binding", "setting": "[1]", "result": "binds"}]}, {"binder": "B2", "values": [{"measurement": "binding", "setting": "[2]", "result": "binds"}]}]}
